Source: article doi:10.1101/2024.10.23.619933
These are yes or no findings as the source states them, for the method shown. Binding seen in cells or lysates may run through a third protein. Where a sequence is shown, tags or fusion partners need not be part of it.

Sequences of proteins named here, by UniProt entry; tags and fusion partners are left off.
UniProt P51149: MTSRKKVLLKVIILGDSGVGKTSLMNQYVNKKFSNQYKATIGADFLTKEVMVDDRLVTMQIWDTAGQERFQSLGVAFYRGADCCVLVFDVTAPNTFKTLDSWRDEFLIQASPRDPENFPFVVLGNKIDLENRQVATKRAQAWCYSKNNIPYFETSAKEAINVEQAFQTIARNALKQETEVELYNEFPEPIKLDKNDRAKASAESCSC
UniProt Q15075: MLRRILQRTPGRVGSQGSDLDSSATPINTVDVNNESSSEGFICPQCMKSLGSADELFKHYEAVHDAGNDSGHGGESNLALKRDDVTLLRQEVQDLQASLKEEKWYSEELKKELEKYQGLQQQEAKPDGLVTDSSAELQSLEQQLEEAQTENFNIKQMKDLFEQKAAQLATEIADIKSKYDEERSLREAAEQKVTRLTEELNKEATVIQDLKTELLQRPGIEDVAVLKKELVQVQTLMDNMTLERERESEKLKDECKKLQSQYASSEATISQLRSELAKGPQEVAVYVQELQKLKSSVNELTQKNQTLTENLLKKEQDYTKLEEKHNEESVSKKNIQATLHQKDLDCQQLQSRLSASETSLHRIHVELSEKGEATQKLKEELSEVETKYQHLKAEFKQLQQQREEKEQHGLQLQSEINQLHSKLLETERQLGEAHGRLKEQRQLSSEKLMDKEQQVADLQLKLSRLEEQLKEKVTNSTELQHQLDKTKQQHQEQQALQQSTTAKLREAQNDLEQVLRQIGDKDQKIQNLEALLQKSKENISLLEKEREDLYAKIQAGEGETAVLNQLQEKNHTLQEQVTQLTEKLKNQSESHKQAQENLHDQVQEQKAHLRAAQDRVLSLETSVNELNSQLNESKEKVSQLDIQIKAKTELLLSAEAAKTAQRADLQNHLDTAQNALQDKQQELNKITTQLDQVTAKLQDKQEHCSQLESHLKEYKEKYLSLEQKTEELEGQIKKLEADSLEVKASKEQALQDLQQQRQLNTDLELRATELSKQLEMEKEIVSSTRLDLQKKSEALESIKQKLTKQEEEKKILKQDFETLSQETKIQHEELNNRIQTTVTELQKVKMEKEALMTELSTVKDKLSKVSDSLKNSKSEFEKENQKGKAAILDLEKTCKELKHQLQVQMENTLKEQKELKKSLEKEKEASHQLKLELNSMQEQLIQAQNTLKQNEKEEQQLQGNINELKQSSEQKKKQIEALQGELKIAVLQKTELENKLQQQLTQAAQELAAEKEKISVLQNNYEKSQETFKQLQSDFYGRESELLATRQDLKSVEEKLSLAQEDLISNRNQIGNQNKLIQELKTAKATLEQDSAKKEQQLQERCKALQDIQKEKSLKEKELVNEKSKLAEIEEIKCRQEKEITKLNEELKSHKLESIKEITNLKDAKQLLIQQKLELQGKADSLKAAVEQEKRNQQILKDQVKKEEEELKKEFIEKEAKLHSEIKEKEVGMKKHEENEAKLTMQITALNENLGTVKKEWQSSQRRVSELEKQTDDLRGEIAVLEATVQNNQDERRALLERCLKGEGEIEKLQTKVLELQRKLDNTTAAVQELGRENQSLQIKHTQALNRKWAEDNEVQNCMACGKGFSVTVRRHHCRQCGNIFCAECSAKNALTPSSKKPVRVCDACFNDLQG

Tests used:
Flag-HA-BBS1 = biological target: T1, Flag-HA-BBS1 (UniProt Q8NFJ9); experiment: co-IP
T1 sequence: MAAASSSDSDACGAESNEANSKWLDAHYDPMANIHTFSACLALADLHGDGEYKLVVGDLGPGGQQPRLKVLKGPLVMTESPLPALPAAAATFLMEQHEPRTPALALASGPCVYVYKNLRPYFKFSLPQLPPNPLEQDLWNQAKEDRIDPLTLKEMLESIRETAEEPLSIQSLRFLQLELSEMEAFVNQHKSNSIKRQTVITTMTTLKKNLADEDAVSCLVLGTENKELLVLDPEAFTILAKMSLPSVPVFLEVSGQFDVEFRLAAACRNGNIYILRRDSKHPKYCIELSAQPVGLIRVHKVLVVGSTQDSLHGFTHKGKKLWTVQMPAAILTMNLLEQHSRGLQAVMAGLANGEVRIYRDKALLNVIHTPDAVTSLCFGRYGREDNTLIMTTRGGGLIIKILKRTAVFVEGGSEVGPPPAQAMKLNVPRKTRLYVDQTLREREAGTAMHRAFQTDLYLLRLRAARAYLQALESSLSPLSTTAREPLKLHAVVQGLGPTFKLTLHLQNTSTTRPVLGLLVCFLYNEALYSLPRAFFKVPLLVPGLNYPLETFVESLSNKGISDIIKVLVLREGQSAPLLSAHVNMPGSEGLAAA

Flag-HA-BBS4 = biological target: T2, Flag-HA-BBS4 (UniProt Q96RK4); experiment: co-IP
T2 sequence: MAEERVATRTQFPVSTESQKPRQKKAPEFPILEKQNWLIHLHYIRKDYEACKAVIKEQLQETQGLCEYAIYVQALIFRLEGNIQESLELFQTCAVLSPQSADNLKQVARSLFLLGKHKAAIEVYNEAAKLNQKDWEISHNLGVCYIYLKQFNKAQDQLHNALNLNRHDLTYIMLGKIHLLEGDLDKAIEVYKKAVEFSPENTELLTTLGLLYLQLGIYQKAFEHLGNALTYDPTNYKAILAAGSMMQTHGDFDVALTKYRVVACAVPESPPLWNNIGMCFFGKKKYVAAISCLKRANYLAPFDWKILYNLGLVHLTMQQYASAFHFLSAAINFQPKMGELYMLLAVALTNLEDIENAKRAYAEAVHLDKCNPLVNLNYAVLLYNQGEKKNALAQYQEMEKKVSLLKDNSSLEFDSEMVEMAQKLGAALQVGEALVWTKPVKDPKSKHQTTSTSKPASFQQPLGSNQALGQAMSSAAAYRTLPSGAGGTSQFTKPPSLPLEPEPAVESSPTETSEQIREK

binding (Flag-HA-BBS1) | binding (Flag-HA-BBS4) | Substance
no binding | no binding | RAB7 (from UniProt P51149 1-207)
no binding | no binding | early endosome antigen 1 (from UniProt Q15075 1-1411)
